Where “and” joins values, the source holds several entries; their conditions need not be identical. Identical values can stand only once. Where a sequence shows no end group, the ends are not given.
Assay: general procedure: peptide synthesis; MBHA resin with 2-hydroxycinnamamide linker; PyBOP
Settings: for cyclisation yield: cyclisation step, head-to-tail ring, sequence written open

Substance | step yield (coupling step) [%] | step yield (late stage modification step) [%] | cyclisation yield [%] | step yield (coupling step, run 1) [%] | step yield (coupling step, run 2)
Fmoc-A-GAGVGLFA-NH2 | 60 | 44 | – | – | –
Ac-LGFAG-GAGVSAG-NH2 | 72 | 43 | – | – | –
SGLYGFAG | – | – | 52 | – | –
Ac-LGFAG-FAGVGLFA-NH2 | 67 | 38 | – | – | –
SGLFGFAG | – | – | 65 | – | –
Ac-LGFAG-LAGVSAG-NH2 | – | 38 | – | 52 | 55% and 60%
TGLFGFAG | – | – | 63 | – | –
Ac-LGFAG-GAGVGLFA-NH2 | 66 | 37 | – | – | –
